Data from PubChem BioAssay AID2685 (National Center for Advancing Translational Sciences (NCATS), 2010).
The campaign covered roughly 320,000 compounds. About 2,100 (0.66%) were called active. The shares of active, inactive and inconclusive entries below differ from those in the screen. Calls follow the shape of the dose curve; as a rule, active = well fitted inhibition curve with a large enough effect in the signal ratio, with a control signal flat (not every such curve was filed as active); inconclusive = small, poorly fitted or top-dose-only effect, or effect the other way, or a change in a side signal; inactive = flat fitted curve, though single readings scatter; the % refers to the signal ratio. Where the call is inconclusive, the potency comes from a doubtful curve fit.

Test: qHTS Assay for Lipid Storage Modulators in Drosophila S3 Cells
Conditions: BODIPY lipid droplet fluorescence, 18-24 h, cells fed with added oleic acid; lipid storage change, negative = inhibition: at 46.1 µM (top of the series) unless noted
Summary of the method: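 Laser-scanning cytometry quantifies lipid droplet accumulation (500–530 nm total intensity; droplet/cell object ratio) in oleic acid-fed (400 uM added) Drosophila S3 cells treated with a concentration series. 20 uM Triacsin C defined 100% inhibition.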
% is scaled to controls: 0 for no effect and ±100 for the full control effect; potency is read from the fitted curve at half-maximal effect.

SMILES	Potency	lipid storage change, negative = inhibition
CCc1ccccc1OCC(=O)NNCC(=O)Nc1cccc(C#N)c1	inconclusive: 18.4 µM [activator, single point]	–
CC(NC(=O)C1CCN(C(=O)Nc2ccccc2)CC1)c1ccc(Cl)cc1 (stereo unspecified)	inconclusive: 6.51 µM [falling, single point]	–
CCc1cccc2c(C(=O)COC(=O)c3c(C)noc3C)c[nH]c12	–	inconclusive: -79.3%
CCN1C(=O)C(Cc2nc3ccccc3c(=O)n2C)c2ccccc21 (stereo unspecified)	inconclusive: 18.4 µM [activator, partial curve]	–
Cc1cc(CNC(=O)CCc2nnc(CCCc3ccccc3)o2)nn1C	–	inconclusive: 37.7%
CCCN(CCC)CCNC(=O)c1cc2c(=O)n(CC)c3ccccc3c2s1	–	inconclusive: 13.1%
Cc1cc(C)nc(NC(=O)COc2cc(Cl)cc(Cl)c2)n1	inconclusive: 29.1 µM [falling, single point]	–
COc1ccc(N(C(=O)CCl)C(C(=O)NCCc2ccccc2)c2cccs2)cc1 (stereo unspecified)	inconclusive: 29.1 µM [falling, single point]	–
O=S(=O)(NC1=NCCCCC1)c1ccccc1Cl	–	inconclusive: -27%
Cc1ccc(S(=O)(=O)N2CCN(C(=O)CNC(=O)c3sc4ccccc4c3Cl)CC2)cc1	–	inactive
CC(C)(Oc1ccc(Cl)cc1)C(=O)Nc1ccncc1	–	inconclusive: 44.5%
Cc1ccc(C(=O)Nc2nc(-c3ccco3)c(-c3ccco3)s2)o1	–	inconclusive: -29.1% [at 0.0737 µM]
Cc1noc(C)c1CSc1nnc2scc(-c3ccccc3)n12	–	inconclusive: 4.43%
Cc1cc(Br)c(OCc2ccc(C(=O)N/N=C3\CC(=O)CC(C)(C)C3)cc2)c(Br)c1	–	inconclusive: 0.61%
Cc1ccc(CN2CCN(CC(=O)NCCCN3CCN(c4ccc(F)cc4)CC3)C2=O)cc1	inconclusive: 29.1 µM [falling, single point]	–
CS(=O)(=O)N(CCc1ccccc1)CC(=O)N1CCCCC1	–	inconclusive: -3.28%
C/[N+]([O-])=C\c1ccc([N+](=O)[O-])o1	inconclusive: 2.06 µM [falling, partial curve, poor fit]	–
CC(=O)Nc1cccc(C(=O)NC2CCCc3c2cnn3-c2ccccc2F)c1 (stereo unspecified)	–	inconclusive: -24.3%
Brc1cccc(CN2CCCCCC2)c1	inconclusive: 29.1 µM [activator, single point]	–
Cc1c(C(=O)OCC(=O)NCc2ccco2)oc2ccccc12	–	inactive
CCc1ccc2c(c1)c(N=NC1=NC(=O)CS1)c(O)n2C	–	inconclusive: 7.56%
CC(C)(C)C1CCC(OCC(O)CN2CCN(Cc3ccccc3)CC2)CC1 (stereo unspecified)	inconclusive: 29.1 µM [falling, single point]	–
CCN1C(=NCCc2c[nH]c3ccccc23)N[C@@H](c2ccccc2)C(C(=O)OC)=C1C	–	inconclusive: -57.3%
O=C(COc1ccc([N+](=O)[O-])cc1)NN=C1CCCC1	inconclusive: 29.1 µM [falling, single point]	–
COCCCN1C(=O)C(=O)/C(=C(/O)c2ccc3c(c2)CC(C)O3)C1c1cccnc1 (stereo unspecified)	–	inconclusive: -44.3%
COc1ccc(N(CC(=O)NCCSC2CCCCC2)S(=O)(=O)c2ccccc2)cc1OC	–	inactive

SMILES	Potency	lipid storage change, negative = inhibition
NC(=O)CN1C(=O)/C(=c2\sc3nc(=O)c(Cc4ccccc4)nn3c2=O)c2ccccc21	inconclusive: 0.92 µM [falling, full curve, poor fit]	–
O=C(O)C1CCCN1C(=O)Oc1ccccc1 (stereo unspecified)	active: 23.1 µM	–
O=C(NC(=O)c1c(Cl)cccc1Cl)Nc1ccc(Oc2cccnc2)nc1	–	inactive
CCN(c1ccccc1)S(=O)(=O)c1cc(C(=O)NCc2ccccn2)ccc1C	inconclusive: 0.92 µM [activator, partial curve]	–
COc1ccc(CN2CCN(Cc3csc(C(C)=O)c3)CC2CCO)c(C)c1C (stereo unspecified)	inconclusive: 29.1 µM [activator, single point]	–
CCCCn1c(N)c(N(CCOC)C(=O)c2oc3ccc(OCC)cc3c2C)c(=O)[nH]c1=O	–	inconclusive: -3.81%
CCOc1ccc2oc(-c3ccccc3)c(C(N)=O)c2c1	–	inconclusive: 16.3%
Cc1ccccc1C(=O)NNC(=O)CSc1nnc(C)n1-c1ccccc1	inconclusive: 0.0046 µM [falling, full curve, poor fit]	–
CCCCC(=O)Nc1cccc(C(=O)Nc2ccccc2C(=O)O)c1	inconclusive: 1.03 µM [falling, full curve]	–
CCOC(=O)c1ccc(N2C(=O)C3C(/C=C/c4ccccc4)OC4(C(=O)c5ccccc5C4=O)C3C2=O)cc1 (stereo unspecified)	–	inconclusive: -41.2%
CCN1CCN(c2oc(/C=C/c3ccccc3)nc2C#N)CC1	inconclusive: 29.1 µM [activator, single point]	–
CSCCC(NS(=O)(=O)c1ccc2c(c1)OCCO2)C(=O)N(C)Cc1ccc(C)cc1 (stereo unspecified)	inconclusive: 1.84 µM [cytotoxic, full curve]	–
COc1ccc(C)cc1S(=O)(=O)N(C)CC(=O)NC1CC1	–	inconclusive: -16.2%
COc1ccc(/C=C2/C(=O)OCc3cc(OC)c(OC)cc32)cc1	–	inconclusive: -28.8%
S=C(NCc1ccccc1)N1CCn2cccc2C1c1cccnc1 (stereo unspecified)	–	inconclusive: 14.4%
c1ccc2c(c1)[nH]c1ccncc12	–	inconclusive: 7.97%
COc1cc(C(C)=O)ccc1OCC(O)Cn1nc(C)c(Br)c1C (stereo unspecified)	–	inconclusive: -89.3%
O=c1cc[nH]c2cc(Cl)ccc12	–	inconclusive: -0.776%
CC1CCN(C(=O)COC(=O)COc2ccccc2C#N)CC1	inconclusive: 6.51 µM [falling, single point]	–
COc1ccnc(Oc2cc(Cl)cc(Cl)c2)c1C#N	–	inactive
O=C(O)[C@@H]1CCCN1S(=O)(=O)c1cccc2cccnc12	inconclusive: 23.1 µM [activator, partial curve, poor fit]	–
O=C(NNC(=O)c1ccncc1)Nc1ccc([N+](=O)[O-])cc1	–	inconclusive: -24.7%
C[C@@H]1O[C@@H](O[C@@H]2C(=O)c3c(O)cc(O)cc3O[C@H]2c2ccc(O)c(O)c2)[C@H](O)[C@H](O)[C@H]1O	inconclusive: 2.59 µM [activator, single point]	–
O=C(CNS(=O)(=O)c1ccccc1F)NNC(=O)c1ccc(Br)cc1	–	inconclusive
CC(C)c1nc(-c2ccccn2)no1	inconclusive: 0.0651 µM [falling, partial curve, poor fit]	–
CC(=O)c1cn(Cc2ccccc2)c(=O)[nH]c1=O	inconclusive: 0.651 µM [falling, full curve]	–

A stretch of the results above:
SMILES	Potency	lipid storage change, negative = inhibition
Cc1ccccc1C(=O)NNC(=O)CSc1nnc(C)n1-c1ccccc1	inconclusive: 0.0046 µM [falling, full curve, poor fit]	–
CCCCC(=O)Nc1cccc(C(=O)Nc2ccccc2C(=O)O)c1	inconclusive: 1.03 µM [falling, full curve]	–

Remaining list, next part:

SMILES	Potency	lipid storage change, negative = inhibition
Cc1nonc1N1CCN(Cc2cn[nH]c2-c2ccc(F)cc2F)CC1	–	inconclusive: 31.4%
C/C(Cl)=C\Cn1c(NCCc2ccccc2)nc2c1c(=O)n(C)c(=O)n2C	active: 6.51 µM	–
Cc1onc(-c2ccccc2)c1C(=O)Nc1nc(-c2ccc(F)c(F)c2)cs1	–	inconclusive: 94.9%
O=C(O)CCCCNS(=O)(=O)c1ccc(Cl)c(C(F)(F)F)c1	–	inconclusive: -0.564%
CC(NCC(=O)Nc1ccccc1C(=O)NC1CC1)c1ccc(S(N)(=O)=O)cc1 (stereo unspecified)	inconclusive: 1.46 µM [activator, full curve]	–
COc1cc(/C=C/C(=O)N2CCc3ccccc3C2)cc(OC)c1OC	–	inconclusive: -116%
CC(=O)Nc1sc(C)c(C)c1C(=O)OCC(=O)Nc1cc(S(=O)(=O)N2CCCCC2)ccc1Cl	–	inconclusive: 19.4%
CCN(CC(=O)Nc1c(F)cccc1F)C(=O)c1ccc2c(c1)NC(=O)C(C)S2 (stereo unspecified)	–	inconclusive: 44.7%
N#Cc1ccc(-c2ccc(OCC(O)Cn3nnc4ccccc43)cc2)cc1 (stereo unspecified)	–	inconclusive: -11.5%
COc1ccc(N2C(=O)CC(C)(C)CC2=O)cc1OC	–	inconclusive: 425%
COc1c(OC(C)=O)ccc(/C=C/c2ccc3cccc(OC)c3n2)c1[N+](=O)[O-]	inconclusive: 18.4 µM [cytotoxic, single point]	–
Cn1c(=O)c2ccccc2n(Cc2ccccc2F)c1=O	inconclusive: 4.61 µM [activator, full curve]	–
CCC[n+]1c(C)sc2c3c(ccc21)CCCC3	inconclusive: 6.51 µM [cytotoxic, full curve]	–
O=C(N/N=C/c1ccnc2ccccc12)c1ccccc1O	–	inconclusive: -32.2%
O=C(CN1C(=O)C2C3C=CC(C3)C2C1=O)NCCc1ccccc1 (stereo unspecified)	–	inconclusive: 49.6%
COc1ccc(/C=N/NC(=O)Cn2cnc3ccccc3c2=O)cc1	–	inconclusive: 6.96%
CCCC(=O)Oc1ccc2c(C)cc(=O)oc2c1	inconclusive: 2.59 µM [falling, partial curve]	–
Cn1c(CCNC(=O)c2ccco2)nc2cc([N+](=O)[O-])ccc21	–	inconclusive: 6.09%
Cc1cc(NS(=O)(=O)c2c(C)[nH]c(=O)[nH]c2=O)ccc1Br	–	inactive
Cc1ccc(NS(=O)(=O)c2ccc3c(c2)NC(=O)CCS3)cc1F	inconclusive: 29.1 µM [activator, single point]	–
O=C(O)CCN1C(=O)CC(N2C(=O)/C(=C/c3ccc(Cl)cc3)SC2=S)C1=O (stereo unspecified)	–	inconclusive: -30.5%
O=C(CNCCO)Nc1ccc(F)c(Cl)c1	inconclusive: 0.92 µM [falling, full curve]	–
FC(F)(F)c1cnc(Nc2ccc(N3CCOCC3)cc2)c(Cl)c1	–	inconclusive: 11.3%
Cc1ccc(S(=O)(=O)NCC(=O)OCc2ccccc2)cc1	–	inconclusive: 14.6%

Some of these compounds in order of heavy-atom count, largest number first:
SMILES	Potency	lipid storage change, negative = inhibition
COc1cc(/C=C/C(=O)N2CCc3ccccc3C2)cc(OC)c1OC	–	inconclusive: -116%
CCN1C(=O)C(Cc2nc3ccccc3c(=O)n2C)c2ccccc21 (stereo unspecified)	inconclusive: 18.4 µM [activator, partial curve]	–
CCc1cccc2c(C(=O)COC(=O)c3c(C)noc3C)c[nH]c12	–	inconclusive: -79.3%
